Values as published with doi:10.1371/journal.pone.0140310, rounded.

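The test systems are human melanoma cell lines, treated with two drugs together for 72 h and then stained and imaged. The read-out is the fraction of cleaved-PARP-positive nuclei, in % of that fraction in the DMSO control; 200 means twice the control level of this apoptosis marker. Every drug was used at one fixed concentration, the higher of two screened. These are primary screening values without error estimates. The marker varies much from line to line, for technical or biological reasons.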 This is part of the screen, not chosen by result. An entry leaves out what has no value listed here. A dash means that no value is listed here.

First drug in all entries: AS-252424, 5 µM, O=C1NC(=O)/C(=C/c2ccc(-c3ccc(F)cc3O)o2)S1

Compounds and concentrations:
L-779450: Oc1cc(-c2nc(-c3ccccc3)[nH]c2-c2ccncc2)ccc1Cl at 1 µM
ABT-263: CC1(C)CCC(c2ccc(Cl)cc2)=C(CN2CCN(c3ccc(C(=O)NS(=O)(=O)c4ccc(N[C@H](CCN5CCOCC5)CSc5ccccc5)c(S(=O)(=O)C(F)(F)F)c4)cc3)CC2)C1 at 2 µM
CHIR-265: Cn1c(Nc2ccc(C(F)(F)F)cc2)nc2cc(Oc3ccnc(-c4ncc(C(F)(F)F)[nH]4)c3)ccc21 at 0.4 µM
MK-1775: C=CCn1c(=O)c2cnc(Nc3ccc(N4CCN(C)CC4)cc3)nc2n1-c1cccc(C(C)(C)O)n1 at 0.1 µM
OSU-03012: NCC(=O)Nc1ccc(-n2nc(C(F)(F)F)cc2-c2ccc3c(ccc4ccccc43)c2)cc1 at 5 µM
tipifarnib: Cn1cncc1[C@@](N)(c1ccc(Cl)cc1)c1ccc2c(c1)c(-c1cccc(Cl)c1)cc(=O)n2C at 0.05 µM
YM155: COCC[n+]1c2c(n(Cc3cnccn3)c1C)C(=O)c1ccccc1C2=O at 0.002 µM
decitabine: Nc1ncn([C@H]2C[C@H](O)[C@@H](CO)O2)c(=O)n1 at 0.5 µM
ENMD-2076: Cc1cc(Nc2cc(N3CCN(C)CC3)nc(/C=C/c3ccccc3)n2)n[nH]1 at 0.2 µM
PD173074: CCN(CC)CCCCNc1ncc2cc(-c3cc(OC)cc(OC)c3)c(NC(=O)NC(C)(C)C)nc2n1 at 0.5 µM
STA-4783: CN(NC(=O)CC(=O)NN(C)C(=S)c1ccccc1)C(=S)c1ccccc1 at 0.03 µM
NVP-TAE684: COc1cc(N2CCC(N3CCN(C)CC3)CC2)ccc1Nc1ncc(Cl)c(Nc2ccccc2S(=O)(=O)C(C)C)n1 at 0.4 µM
bexarotene: C=C(c1ccc(C(=O)O)cc1)c1cc2c(cc1C)C(C)(C)CCC2(C)C at 10 µM
PF-562271: CN(c1ncccc1CNc1nc(Nc2ccc3c(c2)CC(=O)N3)ncc1C(F)(F)F)S(C)(=O)=O at 0.4 µM
NVP-BEZ235: Cn1c(=O)n(-c2ccc(C(C)(C)C#N)cc2)c2c3cc(-c4cnc5ccccc5c4)ccc3ncc21 at 0.02 µM
SU6656: CN(C)S(=O)(=O)c1ccc2c(c1)/C(=C/c1cc3c([nH]1)CCCC3)C(=O)N2 at 2 µM
U73122: COc1ccc2c(c1)CCC1C2CCC2(C)C(NCCCCCCN3C(=O)C=CC3=O)CCC12 (centres unmarked) at 2 µM
selumetinib: Cn1cnc2c(F)c(Nc3ccc(Br)cc3Cl)c(C(=O)NOCCO)cc21 at 0.075 µM
enzastaurin: Cn1cc(C2=C(c3cn(C4CCN(Cc5ccccn5)CC4)c4ccccc34)C(=O)NC2=O)c2ccccc21 at 4 µM

Second drug	501mel	SK-MEL-30	COLO 792	A2058	WM3526	MeWo	WM1745	IST-MEL1	COLO 829	WM1716	WM115	RPMI-7951	A101D	WM451Lu	MEL-HO
MK-1775	93.1	128	148	134	157	109	190	70.3	146	186	94.5	34.7	112	67.6	95.9
ENMD-2076	125	81.8	91.0	106	120	119	-	61.8	56.8	71.4	116	50.4	172	46.3	71.8
selumetinib	407	250	105	265	229	115	-	97.8	109	150	171	114	293	993	69.3
SU6656	59.4	154	83.6	235	111	68.3	142	67.3	143	65.0	367	124	115	196	59.0
U73122	125	86.2	242	124	54.3	59.4	254	61.7	84.4	120	113	183	126	93.7	60.0
NVP-BEZ235	109	144	108	119	242	43.4	-	135	82.4	72.9	118	109	208	71.8	141
YM155	51.8	89.8	84.9	138	108	96.7	153	67.0	12.5	110	106	146	89.3	52.6	106
tipifarnib	290	76.1	112	204	70.5	102	116	60.9	148	107	246	69.5	59.5	29.9	31.9
OSU-03012	456	264	44.4	151	364	109	112	34.7	126	29.0	111	169	49.9	57.2	58.9
ABT-263	92.9	246	2010	195	463	379	-	439	269	1150	167	189	145	970	163
enzastaurin	31.1	76.5	86.9	211	149	142	-	50.3	133	249	104	96.0	639	55.7	92.8
decitabine	173	67.5	128	165	181	370	-	67.6	124	176	120	116	222	191	354
PF-562271	213	75.0	173	173	64.9	218	-	230	139	132	239	162	372	28.2	203
L-779450	248	97.5	83.3	176	243	131	184	32.4	230	150	139	68.5	227	336	30.5
STA-4783	1000	90.9	503	1590	64.3	401	192	96.1	21.3	101	794	34.4	151	80.2	243
CHIR-265	382	77.7	1240	143	749	112	223	34.0	132	261	1030	257	79.9	388	154
NVP-TAE684	62.0	121	74.4	228	216	121	163	60.3	128	71.2	120	77.4	52.5	35.1	124
PD173074	80.9	79.9	87.2	90.7	126	71.6	119	26.8	62.6	42.6	113	39.6	150	318	55.6
bexarotene	91.1	75.3	119	78.9	187	63.5	-	172	113	44.9	103	54.9	82.7	21.5	141

Repeated from the top, 2 entries:

- MK-1775 : 501mel: 93.1; SK-MEL-30: 128; COLO 792: 148; A2058: 134; WM3526: 157; MeWo: 109; WM1745: 190; IST-MEL1: 70.3; COLO 829: 146; WM1716: 186; WM115: 94.5; RPMI-7951: 34.7; A101D: 112; WM451Lu: 67.6; MEL-HO: 95.9
- ENMD-2076 : 501mel: 125; SK-MEL-30: 81.8; COLO 792: 91.0; A2058: 106; WM3526: 120; MeWo: 119; IST-MEL1: 61.8; COLO 829: 56.8; WM1716: 71.4; WM115: 116; RPMI-7951: 50.4; A101D: 172; WM451Lu: 46.3; MEL-HO: 71.8